This is an account of results in PMC4481404.

This assay addresses T1, Wnt8-Myc (UniProt P28026).
T1 sequence: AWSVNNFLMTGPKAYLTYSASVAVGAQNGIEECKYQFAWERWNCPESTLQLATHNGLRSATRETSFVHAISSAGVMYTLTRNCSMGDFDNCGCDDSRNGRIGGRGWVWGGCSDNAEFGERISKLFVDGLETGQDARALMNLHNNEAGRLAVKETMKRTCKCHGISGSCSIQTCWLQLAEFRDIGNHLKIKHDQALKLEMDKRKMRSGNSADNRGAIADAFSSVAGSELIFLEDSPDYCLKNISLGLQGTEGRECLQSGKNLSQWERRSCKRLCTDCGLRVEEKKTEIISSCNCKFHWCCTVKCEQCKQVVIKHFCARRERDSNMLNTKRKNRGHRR
Description: co-IP; tagged mRNAs (1 ng each) injected into two-cell X. laevis embryos, harvested at stage 10.5; lysis in PBS with 1% Triton X-100 and protease inhibitors; protein G-sepharose bound with anti-c-Myc or anti-HA antibody (Fig. 8a: anti-Myc IP); Western blot. For orientation: In western blotting, separated proteins are transferred to a membrane and probed.

Results are given in words; binding and its absence hold for the method and conditions named. Binding seen in cells or lysates may run through a third protein. Binding can be weak; no strength is given. Sequences can lack the tags named with a protein.

As for Insulin3-HA (X. laevis), the binding result is listed as “binds”.
